# Some results were stated once for a whole list of compounds, not compound by compound.
# System: plant cell membranes
# Assay: Plant cell membrane intactness (PI staining, confocal)
# Assay type: in vivo, Arabidopsis thaliana
# Conditions: after 1 and 5 days of exposure; 20 mg/L / 2 mg/L
# Description: Interactions of Targeted Carbon Nanostructures with Plant Cell and Chloroplast Membranes. Damage to plant lipid membranes may cause ion and molecule permeability changes across the membrane, interruption of metabolic processes, intracellular signaling, and trafficking of biomolecules.^65,66 The application of targeted nanostructures with high charge allows penetration of plant cell barriers and localization inside organelles that could cause disruption in lipid membrane integrity. Plant cell membrane intactness in leaves treated with TP-β-CDs or TP-pATV1-SWCNTs (Table 1) was assessed by staining dead cells with propidium iodide (PI) dye followed by imaging under confocal microscopy (FIG. 7A). PI is a nonpermeable dye that only crosses the cell membranes when they are damaged. The overall percentage of intact cells without PI stained nuclei was calculated relative to the total number of cells (FIG. 7B). […] Both TP-β-CDs and TP-pATV1-SWCNTs maintained more than 93% of plant cells with intact membranes after 1 and 5 days of exposure, similar to controls without nanoparticles (FIG. 7B). […]
# The percentage of intact cells was determined in Arabidopsis thaliana leaf tissues treated with TP-β-CD (20, 100, 500 mg/L) or TP-pATV1-SWCNT (2, 5, 10 mg/L) from one to five days. […] The total number of cells was determined using chloroplast autofluorescence to identify the leaf mesophyll cell boundaries. […]
substance,measurement,value
TP-β-CD: carbon dots with β-cyclodextrin molecular baskets covalently bonded to chloroplast targeting peptide MASSMLSSATMVGGC (SEQ ID NO:5) (carbon dots with β-cyclodextrin conjugate),plant cells with intact membranes,more than 93%

# — patent US20230313217A1, “CHLOROPLAST TARGETING PEPTIDES AND CONJUGATES AND COMPOSITIONS THEREOF” (The Regents of the University of California, priority 2021, published 2023)
